Source: PMC7670052
No signal at the amounts used counts as a negative. Where a protein sequence is shown, tags need not be part of it. For part of these data: For at least one entry, the source does not settle the construct or the ends of the probe.

What was measured:
Experiment in all cases: EMSA
ScyR3 = biological target: T1, ScyR3 (UniProt A0A0C5FQ08); conditions: EMSA as in Li C. et al., 2019 (buffer, pH and temperature not given); 10 ng DNA probe per lane; one lane with 100-fold poly(dI-dC); recombinant protein; residues 1-210; protein details: His6 (C-terminal, pET-23b NdeI/XhoI); probe letters rebuilt from the primers and the genome
T1 sequence (looked up): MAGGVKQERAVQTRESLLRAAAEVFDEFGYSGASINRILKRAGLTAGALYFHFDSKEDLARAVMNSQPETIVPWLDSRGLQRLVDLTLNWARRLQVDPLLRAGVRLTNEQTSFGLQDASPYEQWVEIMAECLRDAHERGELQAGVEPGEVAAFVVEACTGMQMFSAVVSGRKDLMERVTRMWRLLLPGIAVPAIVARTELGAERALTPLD

ScyR2 = test system: T2, ScyR2; conditions: EMSA as in Li C. et al., 2019 (buffer, pH and temperature not given); 10 ng DNA probe per lane; one lane with 100-fold poly(dI-dC); recombinant protein; protein details: GST (N-terminal, pGEX-4T-1 EcoRI/XhoI); probe letters rebuilt from the primers and the genome
T2 sequence (looked up, limits assumed): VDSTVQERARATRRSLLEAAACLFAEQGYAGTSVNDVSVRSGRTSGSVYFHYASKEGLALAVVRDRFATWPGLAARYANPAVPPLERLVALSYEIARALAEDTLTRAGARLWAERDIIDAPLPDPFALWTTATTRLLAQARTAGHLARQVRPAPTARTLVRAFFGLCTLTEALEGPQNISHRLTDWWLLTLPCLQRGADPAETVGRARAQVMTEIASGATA

ScyR1 = test system: T3, ScyR1; conditions: EMSA as in Li C. et al., 2019 (buffer, pH and temperature not given); 10 ng DNA probe per lane; one lane with 100-fold poly(dI-dC); recombinant protein; residues 1-233; protein details: His6 (C-terminal, pET-23b NdeI/XhoI); probe letters rebuilt from the primers and the genome
T3 sequence (looked up): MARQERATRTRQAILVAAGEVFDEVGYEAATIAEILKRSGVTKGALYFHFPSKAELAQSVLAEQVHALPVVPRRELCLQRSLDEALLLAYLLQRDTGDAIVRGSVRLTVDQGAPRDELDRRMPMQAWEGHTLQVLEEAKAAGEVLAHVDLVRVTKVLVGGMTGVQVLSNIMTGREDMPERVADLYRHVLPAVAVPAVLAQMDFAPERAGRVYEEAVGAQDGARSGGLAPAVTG

Measured: binding result

CGGTCCTGTCGTCCGGGGTACTGGACCGCCAGGACCTCGATGCCGGGGGCGAGGGACCGGGCCAGGCGCAGATAGGCGCTGGCGGACCCGCCCGCGTGCGGGAAGCACATGAGCCGCGTCCGGGCCGCGGGAGCCGGCTGGAACCGCCGGAGCCAGAGGGATTCGGTCTCGCAAAGGTCGGGCATCGCTCGTCCTCTCCTTAAGTGCGATTATCGCAACACGCGTGTCCGCGTGACCTCGCGAATGGCTCGCCGTCCCGCGGAGGCTGCCCAACCTCCCGGCCGCCCATTCCGAGGACTCTCCACACGCTCGAAAGGGTGAGCGAAATAACGTAAATTCACGGGTTCGTATCAACTCGGCCACCACGCTTGCTCATTGGCTCATTCTCGTATCGGGGTGCGCGTGTGGCGGCTTCGGGAGAGGGGCAGTATCTCGTCGACTTGTGGGCTTTCCTGTTGGTACGAATCCGTAAAGCCCCCGGTCTTCGGGGGAGGGAGTCAGAGGGAGATTATGCGGGGCGTTTCCCCTTCGGTGTCCGTGCGGGAGCCGCAAGGGCTCACGTTCCTCGGCCTGGGCAGGCAGTCCCATGCCGTGAGAACGGCGCTCGAGGCGTGCGCCGCCGGCCGGGTGCGGGTGCTGGTCGTCGAAGGAGGACTCGGCTGCGGGAAAAGCGCGTTCCTGGGGGAGGCGCTCAAGCACGCGGCGGCATC (double strand) [PnemR (nemR promoter)]
no binding: all assays above

CGACGGACCAGTCGAGGTACGGGGCGAGCGCGTCGGCGCAGGCGCGCACACTCTCGCGGAACACCGGGGAGGTGTCCCACAGTTCCGCACCCATCCCCGGCCACTGAGACCCCTGTCCGGGGAAGACGAAGACCACTGCGTCCGCGGACCCGTCGGACGACCCTTCCTCGCCGTGCGCGTGTGTCTCGTGCACTTGTCGTCTCCTCACCGCTCGGCAGGGATGGGCGGCCGCATCGCAGGGCGAAAGTCGCCGCAGGTATTTCGAGGCAGGGGACAGCCCGGCATGGAGAGGACTTTCGCCGCCGGCCGCGCGCCGGAGTCGTGTTTCAAAATAGTGATCGCCCGACGGTCCTGGTACCCCCTATCCACCCCAGGGGTATTCGGCCGATCTTCTTGCTCCCCCTACGAGTTCCGGGTGCGGAAATCGATCGCATTCCCGCCCTCCCGTGTGTCGCCTGGACTCTGGCACAGTAATCGGTGAGGTCGCGACCTCACGCGTGGCCGGGGTGCGGATCTGGCCTCGGGTCCGACCCCATGCATCAAGAGGAAAAGTAAGATAATCGGCAGAAGGGGATTCGGGATGCCGGAATTGAACGACAGGACGGCCTTGGTCACGGGTGCCTCGCGCGGCATCGGAAAAGCCATCGCCCAGCGACTCGCCGCCGAGGGCGTCCGGGTCGCCGTGCACTACGGAACGCAGGAAA (double strand) [PnemA1-1 (nemA1-1/A1-2/A2 promoter)]
no binding: all assays above

CCAGTTCGGCGGTCGCCTCCGCGCCGGGCCCGTCCCGGTCCACACACACCAGCCGCGCCCCGGCGGCACCGAACCGGCAGGCCGTCGCCCGCCCGATGCCGCTCCCCGCCCCCGTGACCAGGACCAGCCGGTCCTCGAAACGCTTCGCGTAACGATCCATGCCTGCGGCTCTTCCCCCTATTTGAACGGGTATTCGCTTCACGTAGCCAGTCTGGGGTGTATAGGGGGTATTCGGGTTGACTTGCCCACCCTAATCTGGCGGGGTTCCGTGCCACCTCCAGCGCAGCGGCGAGGAGACCCCGTCATGGCCAACGAGGAAATGCTCCGCGAGTACCTCAAGCGCGCGACCGCCGATCTGCTGCGGGTCCGGCGCCGGCTGGAGCAGGTCGAGTCGGGCAGGCAGGAGCCGGTCGCGATCGTGGGCATGGCGTGCCGGTTCCCGGGAGGTGTGCGATCGCCCGAGGACCTGTGGGAGCTGGTCG (double strand) [PnemA4 (nemA4/A3/E/D promoter)]
no binding: all assays above

GCGGTGGGCGAGAAGGAGCTGCGCGGGCTCTTGACGTCGATCCCGATCGGCCGGCTGCGGGAGGCGGGGCTGATCGACCGCCTCCTGGCGCTCGCCGCTGCGGCGCCAGACTCCGCCGATCAGACGGCGGAGCAGCCCTCCCGGTCCGTGTCGGTCGAGGACATCGACGCCATGGACGTCGACAGCCTCATCGGCCTGGCCCACGACACCGGCACCGACTCCGGTCACGCCCCCTGCAGGGCTGACCTCCACTTCACGGATGCGAGAGACGACATGACGCAGATTCCGCCAACCGGTCACGACGCCGTGGCAGCCGGGCCCGCCCCCGGCGCCGCGGAACAGAAACGAGGACGGAAACGGAAACCAGGACGGGAGCCCCGGCCAGAGCATCGACGGGAACAGGAACGAGGGCAGGGAGCAGGGCTGGGGCAGGGGCAGGAACGCGCGCGGCCCGCGGACGGTGGTCGGCGGCTCGTGCTTGGCTGGGCGGCGCTCGGCGCGGTGTGCCTGGCCCTGCAGGCGTACGTGCTCGTCCGCTGGGCGGCCGACGGTGGGTATCGCCTGGTGGACGTACCCGGTGAGGGCGGCGCGGAGCGTGGCCACCGAAGGGTCCTCGACATCGTGTTCCCGGCGCTGTCGGCGGCAGGTGTCGTGGGGCTGGCGCTGTGGCTCTACCGCAGGTGC (double strand) [PnemC (nemC promoter)]
no binding: all assays above
